{"source": "patent US9096532B2", "about": "“Pyrazole inhibitors of COX-2 and sEH” (The Regents of the University of California, priority 2010, dated 2015)", "system": "LPS induced allodynia", "assay": "Von Frey mechanical nociceptive assay, LPS induced model of inflammatory pain", "format": "in vivo", "settings": "male SD rats, 10 mg/kg s.c. 60 minutes before intraplantar LPS, tested until 6 hours post LPS", "method": "In vivo anti-allodynic effects of the COX-2/sEH dual inhibitors provided herein was assayed. An LPS induced model of inflammatory pain was used to compare the pain reducing activity of the COX-2/sEH dual inhibitors to combination and individual therapies.\nRats weighing approximately 250-300 grams are brought to the testing apparatus and allowed to acclimate for 30 minutes. After 30 minutes the rats are tested with a von Frey aesthesiometer for their non-treated baseline withdrawal latency to mechanical stimulation. The von Frey apparatus is a raised metal mesh platform that has clear acrylic chambers to enclose rats but allow them to move freely. A rigid tip von Frey probe is used to probe the plantar surface of the rat hind paw though the mesh floor to elicit a withdrawal response. The measures recorded are grams of force applied to the hind paw required to elicit a withdrawal. The pretreatment baseline score is considered the pain-free baseline (BL) and is assigned 100% for further response calculations. […] The measures are then calculated as a percent of the pretreatment baseline score.", "note": "Entries after “also recorded” stand apart in the source; their conditions may differ. At least one structure is not confirmed: it was looked up by name or label, or the drawing left a doubt.", "data": [{"smiles": "Cc1ccc(-c2cc(C(F)(F)F)nn2-c2ccc(S(N)(=O)=O)cc2)cc1", "note": "[Celecoxib, celecoxib, reference compound]", "values": [{"measurement": "Anti-allodynic effect, von Frey paw withdrawal, in words", "result": "slight antihyperalgesic effect; also recorded: limited effect"}]}]}
